The assay deals with Hsp72 (Hsp70), apo, biotinylated (human) (UniProt P0DMV8). The assay is described as follows: flow cytometry protein interaction assay (FCPIA); biotinylated Apo-Hsp72 immobilized on streptavidin coated polystyrene beads, incubated with Alexa Fluor 488 labeled BAG2 protein; median bead-associated fluorescence; biocytin-capped beads subtracted; both purified. A general note: In flow cytometry, cells or beads pass a laser one at a time.

Sequences of proteins named here, by UniProt entry; tags and fusion partners are left off.
UniProt P0DMV8: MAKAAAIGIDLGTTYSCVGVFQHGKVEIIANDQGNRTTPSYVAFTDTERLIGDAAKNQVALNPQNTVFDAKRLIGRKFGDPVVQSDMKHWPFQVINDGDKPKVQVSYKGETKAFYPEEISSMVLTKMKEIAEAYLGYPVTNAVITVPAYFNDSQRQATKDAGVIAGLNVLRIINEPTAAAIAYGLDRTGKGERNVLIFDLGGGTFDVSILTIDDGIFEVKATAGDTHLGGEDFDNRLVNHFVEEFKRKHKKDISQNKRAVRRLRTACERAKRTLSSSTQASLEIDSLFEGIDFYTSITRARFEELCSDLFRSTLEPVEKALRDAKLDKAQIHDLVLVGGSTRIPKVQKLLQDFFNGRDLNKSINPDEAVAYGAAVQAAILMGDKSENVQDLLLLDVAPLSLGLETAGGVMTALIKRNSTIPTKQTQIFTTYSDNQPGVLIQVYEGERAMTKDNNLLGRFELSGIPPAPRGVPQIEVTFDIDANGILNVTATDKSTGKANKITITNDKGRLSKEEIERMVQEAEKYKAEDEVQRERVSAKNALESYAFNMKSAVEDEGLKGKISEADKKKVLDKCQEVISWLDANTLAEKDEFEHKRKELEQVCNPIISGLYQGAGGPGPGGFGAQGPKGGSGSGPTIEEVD
UniProt O95816: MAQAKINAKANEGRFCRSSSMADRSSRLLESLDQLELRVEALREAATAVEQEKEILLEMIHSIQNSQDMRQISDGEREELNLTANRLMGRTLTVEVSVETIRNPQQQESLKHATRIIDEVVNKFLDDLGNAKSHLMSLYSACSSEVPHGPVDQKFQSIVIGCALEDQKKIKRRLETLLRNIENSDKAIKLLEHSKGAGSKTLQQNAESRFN

The values below come from paper PMC9163039.

Results are given in words; binding and its absence hold for the method and conditions named. Some entries that bind do so weakly or less than the wild type.

In the case of “BAG2, recombinant, labeled with Alexa Fluor 488 (from UniProt O95816 1-211)”, the binding entry is “binds”.
